# PubChem BioAssay AID1259327 – Drosophila RNAi Screening Center | 2017
# Assay: 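Baseline ATP after transmembrane-protein gene knock-down with water vehicle only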
# Cells: Drosophila S2R+ cells
# Reagent: long dsRNA against Drosophila genes
# Time to read-out: 5 days (water added on day 4, read one day later)
# Treatment: water added as vehicle, no metal, one day before read-out
# Measurement: 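Total ATP measured by luciferase light, scaled to plate mean, duplicates averaged, then z-scored across plates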
# Scale: ATP z-score: higher = more total ATP than typical wells; ATP luminescence: higher = more total ATP
# Active means: 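Called active when the ATP z-score exceeds 1.5 or falls below -1.5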
# Meaning of the calls: active = hit: ATP up or down; inactive = no clear ATP change
# In all, the deposit lists about 3,100 reagents; shown is a part drawn at random. Of all reagents, 378 (12%) were called active. 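Hits include both directions; z-score sign shows ATP rise or fall; raw luminescence values are not plate-normalised.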 Reagents against one gene are numbered here. No sequences are given here. Not stated in the record: the amount of reagent.
Target gene,reagent,"ATP z-score, duplicate mean","ATP luminescence, replicate 1 (RLU)","ATP luminescence, replicate 2 (RLU)",call
wdp (GeneID 37548),1,0.871,9.70e5,8.89e5,inactive
Mct1 (GeneID 31198),1,-0.291,5.42e5,7.68e5,inactive
Mct1 (GeneID 31198),2,-0.592,8.42e5,6.69e5,inactive
MFS3 (GeneID 33292),1,-0.199,6.96e5,6.75e5,inactive
MFS3 (GeneID 33292),2,0.386,9.07e5,8.35e5,inactive
CG32204 (GeneID 317913),1,-0.327,4.65e5,7.00e5,inactive
CG32204 (GeneID 317913),2,0.0662,8.81e5,7.85e5,inactive
CG7272 (GeneID 39670),1,0.02,9.37e5,8.61e5,inactive
CG7272 (GeneID 39670),2,3.02,6.87e5,6.53e5,active
Irk3 (GeneID 35131),1,0.239,8.15e5,6.89e5,inactive
CG15614 (GeneID 36899),1,0.0177,5.25e5,7.18e5,inactive
Alg12 (GeneID 41191),1,0.239,3.42e5,7.05e5,inactive
Alg12 (GeneID 41191),2,-1.05,4.01e5,4.11e5,inactive
slv (GeneID 35773),1,-0.844,5.46e5,5.41e5,inactive
CG30471 (GeneID 246633),1,0.0695,7.00e5,7.78e5,inactive
CG6149 (GeneID 39277),1,-0.253,9.13e5,8.15e5,inactive
SIFaR (GeneID 42530),1,0.0873,3.66e5,6.12e5,inactive
SIFaR (GeneID 42530),2,-0.0267,2.94e5,7.70e5,inactive
Grd (GeneID 39984),1,-0.897,7.72e5,7.84e5,inactive
Grd (GeneID 39984),2,0.147,9.01e5,7.86e5,inactive
Gr28b (GeneID 117496),1,0.791,8.07e5,8.13e5,inactive
Gr28b (GeneID 117496),2,0.0824,9.46e5,8.69e5,inactive
Gr28b (GeneID 117496),3,-0.523,8.29e5,6.96e5,inactive
PK2-R2 (GeneID 41638),1,0.441,2.85e5,8.95e5,inactive
PK2-R2 (GeneID 41638),2,-0.147,7.80e5,8.84e5,inactive
wun2 (GeneID 53558),1,1.26,7.35e5,7.32e5,inactive
wun2 (GeneID 53558),2,-0.168,5.30e5,6.02e5,inactive
wun2 (GeneID 53558),3,1.33,7.14e5,6.71e5,inactive
CG11737 (GeneID 41009),1,1.96,3.59e5,1.05e6,active
CG31221 (GeneID 42325),1,0.234,3.16e5,7.72e5,inactive
CG31221 (GeneID 42325),2,0.638,9.35e5,8.67e5,inactive
CG3149 (GeneID 31489),1,0.495,8.68e5,6.49e5,inactive
CG3149 (GeneID 31489),2,-0.0228,1.02e6,9.92e5,inactive
Syb (GeneID 36080),1,-2.4,4.08e5,5.42e5,active
Syb (GeneID 36080),2,-0.433,7.39e5,8.54e5,inactive
CG9717 (GeneID 43636),1,-1.01,5.75e5,1.00e6,inactive
Fs(2)Ket (GeneID 35336),1,-4.04,1.74e5,2.20e5,active
Fs(2)Ket (GeneID 35336),2,-3.79,4.74e5,2.84e5,active
CG2991 (GeneID 33488),1,1.36,5.02e5,6.53e5,inactive
CG2991 (GeneID 33488),2,-1.27,7.25e5,8.20e5,inactive
wit (GeneID 44096),1,-0.406,6.89e5,6.86e5,inactive
wit (GeneID 44096),2,0.783,9.27e5,9.68e5,inactive
wit (GeneID 44096),3,-1.8,4.00e5,4.54e5,active
Tehao (GeneID 34761),1,-0.394,6.79e5,6.90e5,inactive
Tehao (GeneID 34761),2,0.931,4.89e5,6.03e5,inactive
CG8399 (GeneID 36768),1,-0.729,6.02e5,7.06e5,inactive
CG8399 (GeneID 36768),2,-1.13,3.90e5,4.11e5,inactive
